PubChem BioAssay AID652243, Drosophila RNAi Screening Center | 2013

Assay: 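Knock-downs that decrease or increase androgen receptor reporter signal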 (primary screen)
Cell system: Drosophila S2R+ cells
Knock-down reagent: long dsRNA against Drosophila genes
Timing: 72 h (48 h, then 24 h hormone)
Treatment: synthetic androgen R1881 at 10 nM for 24 h
Measurement: 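Firefly light from an androgen-responsive reporter and Renilla control light per well, raw and unnormalised, for each of two replicates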
Scale: firefly reporter light: higher = more light from androgen-responsive reporter; Renilla control light: higher = more constitutive control signal (cell number, transfection)
Rule for the call: 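Across duplicate plates, a knock-down whose log firefly/Renilla ratio shifted a set fold down or up from the GFP/LacZ control mean was a hit; the downward cut appears as both 1.5 and 3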
Meaning of the calls: active = hit: reporter lowered or raised; inactive = no hit
The deposit covers about 24,000 reagents; below is an unselected part of those that have a named target and a result. Over the whole deposit, 246 (1%) are marked active. 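Plates not normalised; calls are printed but the firefly/Renilla ratio behind them is not deposited; fold cut for lowering reported inconsistently.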 The raw values are shown without normalisation. Reagents against one gene are numbered here. A plus sign joins genes that one reagent is predicted to hit. Not stated in the record: the amount of reagent.

With knock-down of Afti #1, the record shows firefly reporter light, replicate 1 = 48056; firefly reporter light, replicate 2 = 36207; Renilla control light, replicate 1 = 3.64e5; Renilla control light, replicate 2 = 3.36e5; inactive. After knock-down of Afti #2 the results were firefly reporter light, replicate 1 = 5.69e5; firefly reporter light, replicate 2 = 3.84e5; Renilla control light, replicate 1 = 1.14e6; Renilla control light, replicate 2 = 1.19e6; inactive. Knock-down of CG12341 came out at: firefly reporter light, replicate 1 = 3.97e5; firefly reporter light, replicate 2 = 3.54e5; Renilla control light, replicate 1 = 2.78e6; Renilla control light, replicate 2 = 1.67e6; inactive. GstT2 scored firefly reporter light, replicate 1 = 3.46e5; firefly reporter light, replicate 2 = 3.15e5; Renilla control light, replicate 1 = 2.33e6; Renilla control light, replicate 2 = 2.19e6; inactive. Knock-down of ENGase #1 gave: firefly reporter light, replicate 1 = 6.12e5; firefly reporter light, replicate 2 = 4.94e5; Renilla control light, replicate 1 = 2.71e6; Renilla control light, replicate 2 = 4.11e6; inactive. ENGase #2 gave firefly reporter light, replicate 1 = 3.93e5; firefly reporter light, replicate 2 = 2.94e5; Renilla control light, replicate 1 = 2.99e6; Renilla control light, replicate 2 = 2.61e6; inactive.

drn + CG43675 scored firefly reporter light, replicate 1 = 1.41e5; firefly reporter light, replicate 2 = 1.54e5; Renilla control light, replicate 1 = 1.65e6; Renilla control light, replicate 2 = 1.97e6; inactive. Against Ent1, the values are firefly reporter light, replicate 1 = 7.58e5; firefly reporter light, replicate 2 = 6.09e5; Renilla control light, replicate 1 = 2.65e6; Renilla control light, replicate 2 = 1.49e6; inactive. l(1)G0320 showed firefly reporter light, replicate 1 = 85353; firefly reporter light, replicate 2 = 61673; Renilla control light, replicate 1 = 6.22e5; Renilla control light, replicate 2 = 5.62e5; inactive. CG5021 gave firefly reporter light, replicate 1 = 3.29e5; firefly reporter light, replicate 2 = 2.79e5; Renilla control light, replicate 1 = 3.27e6; Renilla control light, replicate 2 = 2.94e6; inactive. Knock-down of Ebp #1 gave: firefly reporter light, replicate 1 = 1.02e6; firefly reporter light, replicate 2 = 9.44e5; Renilla control light, replicate 1 = 1.79e6; Renilla control light, replicate 2 = 1.49e6; inactive. Ebp #2 gave firefly reporter light, replicate 1 = 6.43e5; firefly reporter light, replicate 2 = 6.30e5; Renilla control light, replicate 1 = 1.01e6; Renilla control light, replicate 2 = 9.41e5; inactive.

For RpS17 #1 the deposit lists firefly reporter light, replicate 1 = 3.97e5; firefly reporter light, replicate 2 = 3.95e5; Renilla control light, replicate 1 = 2.65e6; Renilla control light, replicate 2 = 2.60e6; inactive. Against RpS17 #2, the entry reads firefly reporter light, replicate 1 = 3.35e5; firefly reporter light, replicate 2 = 3.74e5; Renilla control light, replicate 1 = 1.02e6; Renilla control light, replicate 2 = 1.02e6; inactive.

Part of the list above, reduced to “Renilla control light, replicate 1”.
Ent1: 2.65e6
l(1)G0320: 6.22e5
